Results reported in article PMC10205598.

Biological target: MYCFAM172A (MYC-tagged version of the 371aa-long isoform of murine FAM172A, WT) (mouse)
Assay: co-IP; N2a cells transfected with MYCFAM172A (WT or NLS-mutated; with HAFAM172A for self-association), MYC as bait; endogenous importins or HAFAM172A blotted; 100 mM NaCl lysis buffer, with or without 10 min crosslink with 0.75% formaldehyde before lysis; excess MYC peptide as specificity control

binding: binds
B1: endogenous importin-5 (protein, UniProt Q8BKC5 1-1097)
chain: MAAAAAEQQQFYLLLGNLLSPDNVVRKQAEETYENIPGRSKITFLLQAIRNTTAAEEARQMAAVLLRRLLSSAFDEVYPALPSDVQTAIKSELLMIIQMETQSSMRKKICDIAAELARNLIDEDGNNQWPEGLKFLFDSVSSQNMGLREAALHIFWNFPGIFGNQQQHYLDVIKRMLVQCMQDQEHPSIRTLSARATAAFILANEHNVALFKHFADLLPGFLQAVNDSCYQNDDSVLKSLVEIADTVPKYLRPHLEATLQLSLKLCGDTNLNNMQRQLALEVIVTLSETAAAMLRKHTSLIAQTIPQMLAMMVDLEEDEDWANADELEDDDFDSNAVAGESALDRMACGLGGKLVLPMIKEHIMQMLQNPDWKYRHAGLMALSAIGEGCHQQMEGILNEIVNFVLLFLQDPHPRVRYAACNAVGQMATDFAPGFQKKFHEKVIAALLQTMEDQGNQRVQAHAAAALINFTEDCPKSLLIPYLDNLVKHLHSIMVLKLQELIQKGTKLVLEQVVTSIASVADTAEEKFVPYYDLFMPSLKHIVENAVQKELRLLRGKTIECISLIGLAVGKEKFMQDASDVMQLLLKTQTDFNDMEDDDPQISYMISAWARMCKILGKEFQQYLPVVMGPLMKTASIKPEVALLDTQDMENMSDDDGWEFVNLGDQQSFGIKTAGLEEKSTACQMLVCYAKELKEGFVEYTEQVVKLMVPLLKFYFHDGVRVAAAESMPLLLECARVRGPEYLTQMWHFMCDALIKAIGTEPDSDVLSEIMHSFAKCIEVMGDGCLNNEHFEELGGILKAKLEEHFKNQELRQVKRQDEDYDEQVEESLQDEDDNDVYILTKVSDILHSIFSSYKEKVLPWFEQLLPLIVNLICPQRPWPDRQWGLCIFDDIVEHCSPASFKYAEYFISPMLQYVCDNSPEVRQAAAYGLGVMAQFGGDNYRPFCTDALPLLVRVIQAPEAKTKENVNATENCISAVGKIMKFKPDCVNVEEVLPHWLSWLPLHEDKEEAVQTFSYLCDLIESNHPIVLGPNNTNLPKIFSIIAEGEMHEAIKHEDPCAKRLANVVRQVQTSGGLWTECIAQLSPEQQAAIQELLNSA

No constants are given. Whether binding was seen depends on the method and setting. Binding seen in cells or lysates may run through a third protein. A result given as binding can be weak or reduced; the word gives no strength.
